The values below come from paper doi:10.1101/2021.12.17.473173.

The chains behind the UniProt entries cited, without tags or fusion partners.
UniProt Q9ULT8: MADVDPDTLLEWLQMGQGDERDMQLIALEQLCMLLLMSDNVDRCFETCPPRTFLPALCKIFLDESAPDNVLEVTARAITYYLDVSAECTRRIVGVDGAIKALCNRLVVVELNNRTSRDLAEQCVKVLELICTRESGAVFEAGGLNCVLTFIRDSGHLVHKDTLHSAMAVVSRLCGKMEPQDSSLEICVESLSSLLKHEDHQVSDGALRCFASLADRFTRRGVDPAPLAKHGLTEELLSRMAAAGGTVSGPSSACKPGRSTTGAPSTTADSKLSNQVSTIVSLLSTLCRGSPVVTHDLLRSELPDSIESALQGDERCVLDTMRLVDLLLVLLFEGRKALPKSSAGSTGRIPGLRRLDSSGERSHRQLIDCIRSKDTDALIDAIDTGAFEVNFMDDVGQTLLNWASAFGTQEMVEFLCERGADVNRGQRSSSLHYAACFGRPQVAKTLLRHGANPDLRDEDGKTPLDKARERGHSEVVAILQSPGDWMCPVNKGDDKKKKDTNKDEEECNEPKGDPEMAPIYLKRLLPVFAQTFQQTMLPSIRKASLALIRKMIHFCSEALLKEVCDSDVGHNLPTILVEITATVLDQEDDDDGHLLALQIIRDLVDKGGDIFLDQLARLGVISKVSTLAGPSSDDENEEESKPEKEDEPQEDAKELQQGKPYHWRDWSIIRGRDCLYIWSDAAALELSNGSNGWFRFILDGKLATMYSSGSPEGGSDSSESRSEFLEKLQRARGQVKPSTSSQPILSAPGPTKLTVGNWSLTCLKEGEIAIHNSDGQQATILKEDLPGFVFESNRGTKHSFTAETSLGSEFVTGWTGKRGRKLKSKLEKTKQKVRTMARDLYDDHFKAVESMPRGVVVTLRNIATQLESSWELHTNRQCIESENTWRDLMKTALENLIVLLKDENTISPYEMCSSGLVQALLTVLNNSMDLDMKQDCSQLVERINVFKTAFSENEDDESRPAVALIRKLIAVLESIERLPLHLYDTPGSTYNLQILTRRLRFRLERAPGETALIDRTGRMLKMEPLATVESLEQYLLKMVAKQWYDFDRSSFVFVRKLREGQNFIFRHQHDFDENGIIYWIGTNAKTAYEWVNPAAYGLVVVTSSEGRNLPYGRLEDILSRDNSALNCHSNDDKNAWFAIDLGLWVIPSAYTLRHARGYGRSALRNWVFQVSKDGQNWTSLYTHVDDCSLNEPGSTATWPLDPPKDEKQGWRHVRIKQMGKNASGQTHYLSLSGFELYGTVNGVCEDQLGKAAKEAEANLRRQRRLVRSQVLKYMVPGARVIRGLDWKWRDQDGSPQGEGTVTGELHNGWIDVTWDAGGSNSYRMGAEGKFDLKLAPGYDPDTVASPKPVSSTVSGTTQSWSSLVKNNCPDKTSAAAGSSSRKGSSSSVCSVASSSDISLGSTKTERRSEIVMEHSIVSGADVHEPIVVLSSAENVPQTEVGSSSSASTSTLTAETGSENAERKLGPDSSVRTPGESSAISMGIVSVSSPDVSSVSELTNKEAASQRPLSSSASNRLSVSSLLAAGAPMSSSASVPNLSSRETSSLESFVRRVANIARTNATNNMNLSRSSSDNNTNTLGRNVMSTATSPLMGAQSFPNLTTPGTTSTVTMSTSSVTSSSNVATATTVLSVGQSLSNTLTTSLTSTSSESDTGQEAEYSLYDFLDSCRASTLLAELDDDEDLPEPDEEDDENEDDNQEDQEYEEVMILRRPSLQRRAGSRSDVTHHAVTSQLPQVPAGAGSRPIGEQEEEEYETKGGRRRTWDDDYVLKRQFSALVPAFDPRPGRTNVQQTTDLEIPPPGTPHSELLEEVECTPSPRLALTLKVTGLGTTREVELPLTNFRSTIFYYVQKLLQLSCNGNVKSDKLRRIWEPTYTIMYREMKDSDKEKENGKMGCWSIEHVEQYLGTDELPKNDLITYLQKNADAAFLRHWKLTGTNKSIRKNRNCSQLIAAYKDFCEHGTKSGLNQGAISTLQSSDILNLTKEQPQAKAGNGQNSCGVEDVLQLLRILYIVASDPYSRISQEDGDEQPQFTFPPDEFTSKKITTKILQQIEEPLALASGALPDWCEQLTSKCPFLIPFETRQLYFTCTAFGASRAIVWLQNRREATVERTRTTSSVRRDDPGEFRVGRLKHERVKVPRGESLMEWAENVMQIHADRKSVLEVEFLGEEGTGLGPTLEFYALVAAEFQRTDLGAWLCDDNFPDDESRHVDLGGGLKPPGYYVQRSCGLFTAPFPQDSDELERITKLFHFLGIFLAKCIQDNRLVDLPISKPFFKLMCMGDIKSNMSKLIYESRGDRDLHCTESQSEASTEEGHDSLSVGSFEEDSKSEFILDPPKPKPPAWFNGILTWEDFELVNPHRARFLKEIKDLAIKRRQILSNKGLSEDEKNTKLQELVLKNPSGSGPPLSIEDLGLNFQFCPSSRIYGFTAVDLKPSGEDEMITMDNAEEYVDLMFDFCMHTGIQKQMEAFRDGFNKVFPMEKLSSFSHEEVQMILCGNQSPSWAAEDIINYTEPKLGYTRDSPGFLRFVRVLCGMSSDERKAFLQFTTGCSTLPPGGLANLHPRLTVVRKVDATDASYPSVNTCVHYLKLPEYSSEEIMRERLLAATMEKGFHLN
UniProt O43684: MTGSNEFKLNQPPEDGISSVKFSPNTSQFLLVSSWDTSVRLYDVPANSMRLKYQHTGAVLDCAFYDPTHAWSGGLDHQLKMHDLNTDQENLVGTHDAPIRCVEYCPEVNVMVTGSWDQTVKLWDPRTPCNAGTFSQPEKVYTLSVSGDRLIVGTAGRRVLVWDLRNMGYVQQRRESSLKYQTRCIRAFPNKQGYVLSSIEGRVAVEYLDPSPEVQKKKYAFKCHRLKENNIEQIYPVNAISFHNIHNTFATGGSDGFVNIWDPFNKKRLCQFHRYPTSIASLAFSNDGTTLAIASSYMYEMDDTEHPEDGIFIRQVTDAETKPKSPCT
UniProt O60566: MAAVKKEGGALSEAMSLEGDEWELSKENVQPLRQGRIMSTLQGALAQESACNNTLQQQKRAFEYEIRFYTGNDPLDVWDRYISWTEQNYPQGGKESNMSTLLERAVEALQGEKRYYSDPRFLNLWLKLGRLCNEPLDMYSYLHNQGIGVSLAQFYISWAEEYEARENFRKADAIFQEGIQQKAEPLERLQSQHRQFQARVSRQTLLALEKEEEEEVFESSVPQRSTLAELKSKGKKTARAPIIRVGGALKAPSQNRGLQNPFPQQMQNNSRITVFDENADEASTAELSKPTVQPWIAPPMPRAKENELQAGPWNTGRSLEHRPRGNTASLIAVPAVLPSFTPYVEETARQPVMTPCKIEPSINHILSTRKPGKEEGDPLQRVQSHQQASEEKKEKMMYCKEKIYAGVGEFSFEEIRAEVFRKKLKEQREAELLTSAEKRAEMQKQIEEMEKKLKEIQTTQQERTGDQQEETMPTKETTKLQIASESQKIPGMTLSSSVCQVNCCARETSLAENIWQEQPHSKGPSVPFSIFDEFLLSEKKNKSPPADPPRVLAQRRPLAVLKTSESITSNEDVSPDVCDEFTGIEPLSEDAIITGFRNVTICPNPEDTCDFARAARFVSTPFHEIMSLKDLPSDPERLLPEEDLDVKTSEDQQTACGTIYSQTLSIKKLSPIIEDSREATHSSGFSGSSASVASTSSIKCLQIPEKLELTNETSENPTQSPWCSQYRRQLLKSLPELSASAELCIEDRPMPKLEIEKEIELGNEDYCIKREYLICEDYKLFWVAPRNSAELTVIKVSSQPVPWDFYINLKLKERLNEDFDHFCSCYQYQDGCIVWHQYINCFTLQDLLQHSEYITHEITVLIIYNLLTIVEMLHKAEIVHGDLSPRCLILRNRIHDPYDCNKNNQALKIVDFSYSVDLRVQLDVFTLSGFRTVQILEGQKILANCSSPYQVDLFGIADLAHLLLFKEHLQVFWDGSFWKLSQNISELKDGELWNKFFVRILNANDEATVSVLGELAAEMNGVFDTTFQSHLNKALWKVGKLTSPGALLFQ
UniProt Q13257: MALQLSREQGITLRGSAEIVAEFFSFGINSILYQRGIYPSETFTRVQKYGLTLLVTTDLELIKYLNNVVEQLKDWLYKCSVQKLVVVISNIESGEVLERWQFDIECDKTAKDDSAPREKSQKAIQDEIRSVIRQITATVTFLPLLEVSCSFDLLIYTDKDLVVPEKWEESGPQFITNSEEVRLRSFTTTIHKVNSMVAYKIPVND

These are yes or no findings as the source states them, for the method shown. In cells and extracts the contact can be indirect. Some entries that bind do so weakly or less than the wild type.

This assay deals with HECTD1 (endogenous) (human (endogenous in HEK293T)) (UniProt Q9ULT8). Description: co-IP.
For “BUB3 (endogenous) (from UniProt O43684 1-328)”, the binding entry is reported as “binds”.

As to “BUBR1 (endogenous) (from UniProt O60566 1-1050)”, the binding result is recorded as “no binding”.

In the case of “MAD2 (endogenous) (from UniProt Q13257 1-205)”, the binding result is on record as “no binding”.
